Laboratory results reported in publication PMC8011926 (Journal of Medicinal Chemistry, 2020).
No constants are given. Whether binding was seen depends on the method and setting. Binding seen in cells or lysates may run through a third protein. Some binding calls cover weakened binding; strength is not graded here.

The chains behind the UniProt entries cited, without tags or fusion partners.
UniProt P41146: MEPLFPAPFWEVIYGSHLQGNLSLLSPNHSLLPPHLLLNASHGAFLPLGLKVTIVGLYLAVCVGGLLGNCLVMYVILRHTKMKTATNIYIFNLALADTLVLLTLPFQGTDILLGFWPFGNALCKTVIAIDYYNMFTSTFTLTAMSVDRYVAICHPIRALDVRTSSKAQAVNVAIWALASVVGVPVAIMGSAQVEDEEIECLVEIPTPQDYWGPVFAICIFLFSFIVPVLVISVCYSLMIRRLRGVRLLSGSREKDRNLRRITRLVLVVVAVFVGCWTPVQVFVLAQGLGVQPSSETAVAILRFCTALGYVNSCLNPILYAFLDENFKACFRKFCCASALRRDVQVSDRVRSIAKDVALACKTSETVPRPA
UniProt P35372: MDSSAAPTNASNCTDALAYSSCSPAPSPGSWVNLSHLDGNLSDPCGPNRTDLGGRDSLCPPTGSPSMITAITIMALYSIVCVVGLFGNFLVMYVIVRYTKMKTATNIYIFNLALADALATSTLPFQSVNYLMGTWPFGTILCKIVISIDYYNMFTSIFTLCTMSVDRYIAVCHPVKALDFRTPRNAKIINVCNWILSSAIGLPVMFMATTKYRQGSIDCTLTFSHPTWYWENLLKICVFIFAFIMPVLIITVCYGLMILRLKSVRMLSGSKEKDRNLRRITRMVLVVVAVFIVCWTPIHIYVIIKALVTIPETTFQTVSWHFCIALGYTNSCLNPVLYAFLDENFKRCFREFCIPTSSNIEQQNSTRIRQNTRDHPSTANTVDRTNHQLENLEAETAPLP
UniProt P62873: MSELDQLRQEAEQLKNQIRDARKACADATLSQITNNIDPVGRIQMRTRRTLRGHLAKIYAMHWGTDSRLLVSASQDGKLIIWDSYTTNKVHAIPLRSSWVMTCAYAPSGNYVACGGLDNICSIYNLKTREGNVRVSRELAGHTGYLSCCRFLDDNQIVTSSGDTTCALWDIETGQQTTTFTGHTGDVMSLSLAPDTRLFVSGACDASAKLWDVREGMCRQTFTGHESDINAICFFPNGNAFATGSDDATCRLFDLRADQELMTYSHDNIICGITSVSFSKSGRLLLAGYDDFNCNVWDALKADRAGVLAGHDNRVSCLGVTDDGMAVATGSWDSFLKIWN
UniProt P32121: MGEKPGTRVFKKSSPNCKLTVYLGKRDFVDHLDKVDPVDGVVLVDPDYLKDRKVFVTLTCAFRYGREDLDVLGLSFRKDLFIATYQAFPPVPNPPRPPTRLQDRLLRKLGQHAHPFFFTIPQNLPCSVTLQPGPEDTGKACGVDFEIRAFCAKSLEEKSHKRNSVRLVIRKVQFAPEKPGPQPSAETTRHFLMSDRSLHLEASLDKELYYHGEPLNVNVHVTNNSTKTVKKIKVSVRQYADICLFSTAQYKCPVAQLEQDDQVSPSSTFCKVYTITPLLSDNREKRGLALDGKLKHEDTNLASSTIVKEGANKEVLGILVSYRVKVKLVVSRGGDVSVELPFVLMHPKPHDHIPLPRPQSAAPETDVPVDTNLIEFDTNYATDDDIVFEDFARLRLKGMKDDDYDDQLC

What was measured:
[1] = target: N/OFQ peptide (NOP) receptor fused to Renilla luciferase (UniProt P41146); assay: FRET or BRET; membranes (3 μg of protein) from HEK293 cells co-expressing NOP-RLuc and Gβ1-RGFP, in DPBS; coelenterazine 5 μM; agonist peptide added; stimulated BRET ratio; room temperature
[2] = target: mu opioid receptor fused to Renilla luciferase (UniProt P35372); assay: FRET or BRET; whole SH-SY5Y cells co-expressing mu-RLuc or delta-RLuc and β-arrestin 2-RGFP, PBS with MgCl2 0.5 mM and CaCl2 0.9 mM; coelenterazine 5 μM; agonist peptide added; stimulated BRET ratio; room temperature
[3] = target: N/OFQ peptide (NOP) receptor fused to Renilla luciferase (UniProt P41146); assay: FRET or BRET; whole HEK293 cells co-expressing NOP-RLuc and β-arrestin 2-RGFP, PBS with MgCl2 0.5 mM and CaCl2 0.9 mM; coelenterazine 5 μM; agonist peptide added; stimulated BRET ratio; room temperature

binding [1]	binding [2]	binding [3]	Substance
binds			Gβ1 fused to RGFP (from UniProt P62873 1-340)
	binds	binds	β-arrestin 2 fused to RGFP (from UniProt P32121 1-409)
